# The list shows a part of the results. The main result of the screen is listed elsewhere. These columns were measured beside it and carry no call. Most of these compounds were active or inconclusive in the main read-out, so they are no random draw. Words in brackets tell the shape of the fitted curve; partial curves, single points and poor fits give uncertain potencies.
# Assay: qHTS Assay for Lipid Storage Modulators in Drosophila S3 Cells;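 on cell number change: cells counted by Cell Tracker Red CMTPX staining in the red channel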
# Conditions: BODIPY lipid droplet fluorescence, 18-24 h; for cell number change: measured here: cell count max response, cells fed with added oleic acid
# Procedure, shortened: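 Drosophila S3 cells loaded with oleic acid (400 uM, as added) and compounds at several concentrations; lipid droplets imaged by 488-nm laser-scanning cytometry, 500–530 nm intensity and object ratio to cell channel. Percent activity normalized to 20 uM Triacsin C.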
# [1] = measured here: lipid fluorescence (Fed channel) AC50, cells fed with added oleic acid
# [2] = measured here: cell number channel AC50, cells fed with added oleic acid
smiles,measurement,setting,value
COC(=O)c1c(NC(=O)c2ccccc2[N+](=O)[O-])sc2c1CC(C)(C)NC2(C)C,cell number change,,-5.16%
same,AC50,[1],"0.0517 µM [rising, full curve, poor fit]"
CCOC(=O)c1[nH]c2ccc(Cl)cc2c1-c1ccccc1,cell number change,,-48.3%
same,AC50,[2],"29.1 µM [falling, partial curve]"
same,AC50,[1],"32.6 µM [falling, single point]"
O=C(O)c1n[nH]c2c1CCCCC2,cell number change,,-4.34%
same,AC50,[1],"0.0259 µM [falling, full curve, poor fit]"
COc1cccc(C(=O)N2CCN=C2SC)c1,cell number change,,-1.03%
same,AC50,[2],"0.731 µM [rising, partial curve, poor fit]"
O=C(c1ccc(OC2CCN(Cc3cccc(OCCO)c3)CC2)cc1)N1CCCC1,cell number change,,31.3%
same,AC50,[2],"32.6 µM [rising, single point]"
same,AC50,[1],"29.1 µM [rising, single point]"
CCOC(=O)c1ccc(NC(=O)CSc2nc3ncccc3[nH]2)cc1,cell number change,,-44.5%
same,AC50,[2],"29.1 µM [falling, single point]"
same,AC50,[1],"14.6 µM [falling, partial curve]"
NC(=NCCc1c[nH]c2ccccc12)NS(=O)(=O)c1ccc(F)cc1,cell number change,,16.6%
Cc1cc(C)n(C(=O)c2ccc(NC(=O)C3CC3)cc2)n1,cell number change,,63.7%
same,AC50,[2],"20.6 µM [rising, single point]"
same,AC50,[1],"0.58 µM [rising, single point]"
O=C(CCn1[nH]c(=O)c2ccccc2c1=O)NCCO,AC50,[1],"1.46 µM [falling, partial curve]"
COCC1CCCN(C(=O)c2cc(COc3ccc4ncccc4c3)on2)C1 (configuration not stated),cell number change,,-23.2%
same,AC50,[1],"6.51 µM [rising, single point]"
C/C(=N\NC(=O)c1c(Br)c(C)nn1C)c1ccc(NC(=O)c2ccoc2C)cc1,cell number change,,26.1%
same,AC50,[2],"0.82 µM [rising, full curve, poor fit]"
same,AC50,[1],"1.64 µM [rising, partial curve]"
CCc1ccc(NC2=CC(=O)CC(C)(C)C2)cc1,AC50,[1],"25.9 µM [falling, partial curve, poor fit]"
CC(Sc1nc(-c2ccccc2)nc2c1COC(C)(C)C2)C(=O)N1CCOCC1 (configuration not stated),cell number change,,107%
same,AC50,[2],"8.2 µM [rising, partial curve]"
same,AC50,[1],"4.61 µM [rising, full curve]"
CCOc1cc(CN2CCN(CCOCCO)CC2)ccc1OC,cell number change,,-79.8%
same,AC50,[2],"29.1 µM [falling, single point]"
Cc1cc(NC(=O)CSc2nnc(CNC(=O)c3c(F)cccc3F)o2)no1,AC50,[2],"1.84 µM [falling, partial curve]"

# A different layout for part of the listing above.
smiles	measurement	setting	value
O=C(c1ccc(OC2CCN(Cc3cccc(OCCO)c3)CC2)cc1)N1CCCC1	AC50	[1]	29.1 µM [rising, single point]
CCOC(=O)c1ccc(NC(=O)CSc2nc3ncccc3[nH]2)cc1	cell number change		-44.5%

# — PubChem BioAssay AID2685 (National Center for Advancing Translational Sciences (NCATS), 2010)
